These are yes or no findings as the source states them, for the method shown. Binding seen in cells or lysates may run through a third protein. Some entries that bind do so weakly or less than the wild type.
T1: XRCC2 (human (endogenous in SW620)) (UniProt O43543)
T1 sequence: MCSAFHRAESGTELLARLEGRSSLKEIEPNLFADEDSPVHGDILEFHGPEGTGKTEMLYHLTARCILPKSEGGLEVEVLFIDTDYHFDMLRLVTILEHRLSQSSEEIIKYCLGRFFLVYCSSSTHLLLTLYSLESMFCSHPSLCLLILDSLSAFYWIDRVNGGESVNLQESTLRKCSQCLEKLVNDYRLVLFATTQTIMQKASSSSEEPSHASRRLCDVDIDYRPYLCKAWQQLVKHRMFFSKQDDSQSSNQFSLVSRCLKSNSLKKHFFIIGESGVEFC

By UniProt entry, the sequences of proteins in these tests, tags left out.
UniProt P09874: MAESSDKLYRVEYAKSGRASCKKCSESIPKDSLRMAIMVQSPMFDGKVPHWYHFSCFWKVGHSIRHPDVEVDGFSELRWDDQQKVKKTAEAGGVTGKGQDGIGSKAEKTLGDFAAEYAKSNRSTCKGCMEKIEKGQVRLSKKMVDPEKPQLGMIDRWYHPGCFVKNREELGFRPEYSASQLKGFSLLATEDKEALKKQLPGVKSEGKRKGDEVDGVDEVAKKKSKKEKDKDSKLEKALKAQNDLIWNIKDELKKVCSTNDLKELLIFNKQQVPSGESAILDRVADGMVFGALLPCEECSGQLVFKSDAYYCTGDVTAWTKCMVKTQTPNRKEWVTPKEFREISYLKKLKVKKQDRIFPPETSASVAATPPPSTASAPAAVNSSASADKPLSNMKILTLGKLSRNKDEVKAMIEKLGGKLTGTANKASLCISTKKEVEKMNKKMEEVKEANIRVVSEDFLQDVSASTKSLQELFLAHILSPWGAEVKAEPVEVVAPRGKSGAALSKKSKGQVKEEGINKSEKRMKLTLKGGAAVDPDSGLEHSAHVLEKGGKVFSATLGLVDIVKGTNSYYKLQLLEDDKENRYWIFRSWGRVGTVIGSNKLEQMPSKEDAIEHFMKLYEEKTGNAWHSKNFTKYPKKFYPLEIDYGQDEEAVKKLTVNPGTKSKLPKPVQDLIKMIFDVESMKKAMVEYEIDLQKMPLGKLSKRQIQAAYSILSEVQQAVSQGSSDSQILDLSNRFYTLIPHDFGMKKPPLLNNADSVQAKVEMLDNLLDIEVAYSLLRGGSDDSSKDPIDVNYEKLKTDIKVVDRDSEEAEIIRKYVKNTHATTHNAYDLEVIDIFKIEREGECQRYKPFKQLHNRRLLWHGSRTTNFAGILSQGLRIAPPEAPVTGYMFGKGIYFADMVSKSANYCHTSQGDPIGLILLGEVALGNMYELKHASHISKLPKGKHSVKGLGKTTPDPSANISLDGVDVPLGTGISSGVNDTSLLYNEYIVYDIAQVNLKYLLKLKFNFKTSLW


Legend:
[1] = biological target: T1, XRCC2 (human (endogenous in SW620)); assay: co-IP; Pierce Co-Immunoprecipitation Kit; SW620 cells; precipitation with anti-PARP1 or anti-XRCC2 mouse monoclonal antibody (two-way), IgG as negative control, Western blot
[2] = biological target: PAR polymerase1 (PARP1) (human (endogenous in SW620)) (UniProt P09874); assay: as above

binding [1]	binding [2]	Molecule
binds		PAR polymerase1 (PARP1) (from UniProt P09874 1-1014)
	binds	XRCC2 (protein, UniProt O43543 1-280) MCSAFHRAESGTELLARLEGRSSLKEIEPNLFADEDSPVHGDILEFHGPEGTGKTEMLYHLTARCILPKSEGGLEVEVLFIDTDYHFDMLRLVTILEHRLSQSSEEIIKYCLGRFFLVYCSSSTHLLLTLYSLESMFCSHPSLCLLILDSLSAFYWIDRVNGGESVNLQESTLRKCSQCLEKLVNDYRLVLFATTQTIMQKASSSSEEPSHASRRLCDVDIDYRPYLCKAWQQLVKHRMFFSKQDDSQSSNQFSLVSRCLKSNSLKKHFFIIGESGVEFC
